No constants are given. Whether binding was seen depends on the method and setting. Tags and fused reporters may be left off the sequences shown.
Biological target: EB1 (yeast two-hybrid fusion) (human) (UniProt Q15691)
Assay: two-hybrid; Matchmaker 3 yeast two-hybrid system (Clontech), vectors pGBT9 and pGAD424, lacZ reporter, blue colonies on plates with X-Gal

Sequences of proteins named here, by UniProt entry; tags and fusion partners are left off.
UniProt Q15691: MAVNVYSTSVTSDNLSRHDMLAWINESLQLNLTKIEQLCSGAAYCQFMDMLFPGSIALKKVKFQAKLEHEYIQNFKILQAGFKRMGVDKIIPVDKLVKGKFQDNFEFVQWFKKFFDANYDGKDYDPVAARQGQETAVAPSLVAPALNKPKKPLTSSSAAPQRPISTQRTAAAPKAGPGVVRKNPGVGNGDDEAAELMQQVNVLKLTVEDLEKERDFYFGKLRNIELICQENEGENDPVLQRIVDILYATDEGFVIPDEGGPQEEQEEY

B1: Astrin (yeast two-hybrid fusion) (protein, UniProt Q96R06 1-1193)
chain: MWRVKKLSLSLSPSPQTGKPSMRTPLRELTLQPGALTNSGKRSPACSSLTPSLCKLGLQEGSNNSSPVDFVNNKRTDLSSEHFSHSSKWLETCQHESDEQPLDPIPQISSTPKTSEEAVDPLGNYMVKTIVLVPSPLGQQQDMIFEARLDTMAETNSISLNGPLRTDDLVREEVAPCMGDRFSEVAAVSEKPIFQESPSHLLEESPPNPCSEQLHCSKESLSSRTEAVREDLVPSESNAFLPSSVLWLSPSTALAADFRVNHVDPEEEIVEHGAMEEREMRFPTHPKESETEDQALVSSVEDILSTCLTPNLVEMESQEAPGPAVEDVGRILGSDTESWMSPLAWLEKGVNTSVMLENLRQSLSLPSMLRDAAIGTTPFSTCSVGTWFTPSAPQEKSTNTSQTGLVGTKHSTSETEQLLCGRPPDLTALSRHDLEDNLLSSLVILEVLSRQLRDWKSQLAVPHPETQDSSTQTDTSHSGITNKLQHLKESHEMGQALQQARNVMQSWVLISKELISLLHLSLLHLEEDKTTVSQESRRAETLVCCCFDLLKKLRAKLQSLKAEREEARHREEMALRGKDAAEIVLEAFCAHASQRISQLEQDLASMREFRGLLKDAQTQLVGLHAKQEELVQQTVSLTSTLQQDWRSMQLDYTTWTALLSRSRQLTEKLTVKSQQALQERDVAIEEKQEVSRVLEQVSAQLEECKGQTEQLELENSRLATDLRAQLQILANMDSQLKELQSQHTHCAQDLAMKDELLCQLTQSNEEQAAQWQKEEMALKHMQAELQQQQAVLAKEVRDLKETLEFADQENQVAHLELGQVECQLKTTLEVLRERSLQCENLKDTVENLTAKLASTIADNQEQDLEKTRQYSQKLGLLTEQLQSLTLFLQTKLKEKTEQETLLLSTACPPTQEHPLPNDRTFLGSILTAVADEEPESTPVPLLGSDKSAFTRVASMVSLQPAETPGMEESLAEMSIMTTELQSLCSLLQESKEEAIRTLQRKICELQARLQAQEEQHQEVQKAKEADIEKLNQALCLRYKNEKELQEVIQQQNEKILEQIDKSGELISLREEVTHLTRSLRRAETETKVLQEALAGQLDSNCQPMATNWIQEKVWLSQEVDKLRVMFLEMKNEKEKLMIKFQSHRNILEENLRRSDKELEKLDDIVQHIYKTLLSIPEVVRGCKELQGLLEFLS
binding: no binding

From publication PMC4365484
